Measured values: PubChem BioAssay AID504834 (National Center for Advancing Translational Sciences (NCATS), 2011)
The campaign covered roughly 320,000 compounds. About 22,000 (6.9%) were called active. This list was built around the results that the source calls inconclusive (neither active nor inactive); the mix of calls is not that of the screen. The call rests on the fitted dose curve; in most records, active means well fitted inhibition curve with a large enough effect; inconclusive means small, poorly fitted or top-dose-only effect, or another doubt; inactive means no such curve, though single readings can be large or run the other way. Potencies of inconclusive entries are doubtful fits and often do not repeat.

experiment: Primary qHTS for delayed death inhibitors of the malarial parasite plastid, 96 hour incubation; conditions: P. falciparum luciferase reporter growth; series mostly up to 28.7 µM; activity change, negative = inhibition: at the top concentration
Source text: The goal of this screen is to discover new antimalarial compounds that act by inhibiting the development of the apicoplast in the malarial parasite Plasmodium falciparum. The biochemical processes that make this organelle essential for erythrocytic stage parasites are not well understood. However, antibiotics such as azithromycin and tetracycline, which target the apicoplast translational machinery, have a potent antimalarial effect.
We have developed a cell-based assay that measures parasite growth based on the expression of an integrated copy of a firefly luciferase reporter. To detect small molecules that cause this "delayed death" phenotype, erythrocytes infected with the luciferase-expressing parasites were incubated with compounds for either one or two generations, corresponding to 48 and 96 hours, respectively. Compounds that inhibit parasite growth in the second generation, but not the first, should be enriched in antimalarials that target the apicoplast. Growth inhibition is detected by a decrease in luciferase activity.
Assay Provider: David Fidock and Eric Ekland, Columbia University
Keywords: NIH Roadmap, MLPCN, MLI, MLSMR, qHTS, NCGC, qHTS, malaria, luciferase, viability
Four microliters of infected erythrocytes (2% hematocrit, 0.05% parasitemia final concentration) in culture medium were dispensed and the plates incubated for 96 hours at 37 C in 5% CO2. Two microliters of luciferase detection reagent was added and luminescence was detected by a ViewLux (PerkinElmer) reader.
On the % scale 0 is the no-effect control and ±100 the full control effect; potency means the concentration at half of the fitted maximal effect.

Row | Compound | activity change, negative = inhibition | Potency
1 | CCOC(=O)N1CCN(C(=O)CNCc2cccs2)CC1 | inactive: 20.7% | 
2 | CNc1ncnc2ccc(-c3c(C)noc3C)cc12 | inactive: -16.9% | 
3 | COc1cccc(Nc2nc(N)c([N+](=O)[O-])c(N3CCOCC3)n2)c1 |  | active: 14.7 µM
4 | CSc1nc2ccc3nc(NC(=O)C4COc5ccccc5O4)sc3c2s1 (stereo not given) |  | inconclusive: 18.5 µM [inhibitor, single point]
5 | COc1ccc(OC)c2c1sc(=NC(=O)c1ccco1)n2C |  | inconclusive: 10.4 µM [inhibitor, partial curve, poor fit]
6 | Nn1c(SCC(=O)Nc2c(Cl)cccc2Cl)nncc1=O |  | inconclusive: 11.7 µM [inhibitor, single point]
7 | COc1ccc(OC)c(Cc2nnc(CCC(=O)N3CCCCC3)o2)c1 |  | inconclusive: 8.28 µM [inhibitor, single point]
8 | Cc1nn2c(=O)cc(CSCC(=O)Nc3ccccc3F)nc2s1 |  | inconclusive: 18.5 µM [inhibitor, single point]
9 | COc1ccc(Cl)c(OC)c1C(=O)NC(=O)Nc1c(F)cc(F)cc1F |  | inconclusive: 11.7 µM [inhibitor, single point]
10 | CCOCCCN(C(=O)c1snc(C(N)=O)c1N)C(C(=O)NCCC(C)C)c1ccc(F)cc1 (stereo not given) |  | inconclusive: 11.7 µM [inhibitor, single point]
11 | COc1ccc(NC(=O)Nc2cc(C(=O)O)ccc2N2CC3CC(C2)c2cccc(=O)n2C3)c(OC)c1 (stereo not given) | inactive: -24.2% | 
12 | O=[N+]([O-])c1ccc(/C=N/Nc2ccc3ccccc3c2)o1 | inactive: -21.3% | 
13 | Cc1nc(COC(=O)c2cc(O)c3ccccc3c2O)cs1 |  | inconclusive: 10.4 µM [inhibitor, single point]
14 | O=C(CSc1ncn[nH]1)Nc1ccnc2ccccc12 |  | inconclusive: 18.5 µM [inhibitor, single point]
15 | CCCCCCN(C(=O)CCCCCN1C(=O)NC(c2ccc(-c3ccccc3)cc2)C(C(=O)OCc2ccccc2)=C1C)C(C(=O)NCCCC)c1ccc(OCC(=O)OC)cc1 (stereo not given) |  | active: 4.65 µM
16 | COC(=O)c1c(NC(NC(=O)CC(C)C)C(Cl)(Cl)Cl)sc2c1CCC2 (stereo not given) |  | active: 11.7 µM
17 | Cc1ncoc1C(=O)N1CCCC(C(=O)c2ccc(-c3ccccc3)c(F)c2)C1 (stereo not given) |  | inconclusive: 20.8 µM [inhibitor, single point]
18 | CN1CCN(C(=O)c2ccc(CSc3ccc(Cl)cc3)cc2)CC1 | inactive: 4.1% | 
19 | O=[N+]([O-])c1ccc(Cl)c(S(=O)(=O)NC2=NCCC2)c1 | inactive: 15.6% | 
20 | O=C(c1ccco1)N1CCN=C1SCc1ccccc1Cl |  | inconclusive: 2.62 µM [inhibitor, single point]
21 | C=CCc1cc(Cl)ccc1OCCCNC(C)C | inactive: 23% | 
22 | CCn1ncc(/C=N\NC(=O)c2cc(-c3ccc(C)cc3C)nc3ccccc23)c1C |  | inconclusive: 4.15 µM [inhibitor, partial curve, poor fit]
23 | COc1ccc(S(=O)(=O)N2CCN(CC(=O)Nc3cc(Cl)ccc3Cl)CC2)cc1 | inactive: 10.1% | 
24 | Cn1c(CN2CCOCC2)nc2cc(NC(=O)c3ccc(Cl)cc3)ccc21 |  | inconclusive: 11.7 µM [inhibitor, single point]

Row | Compound | activity change, negative = inhibition | Potency
25 | c1ccc(C(Cc2nc(-c3cccnc3)no2)c2ccccc2)cc1 |  | inconclusive: 13.1 µM [inhibitor, partial curve]
26 | CCOc1ccccc1N(CC(=O)Nc1ccccc1)S(=O)(=O)c1ccccc1 |  | active: 11.7 µM
27 | O=c1c2ccccc2nnn1CSc1nnc(Nc2ccccc2)s1 |  | inconclusive: 11.7 µM [inhibitor, single point]
28 | CC(C(=O)N1CCCCC1)N1CCN(S(=O)(=O)c2ccc(Cl)cc2)CC1 (stereo not given) |  | inconclusive: 9.28 µM [inhibitor, single point]
29 | O=C(c1ccc2nccnc2c1)N1CCN(c2ccccc2)CC1 | inactive: -3.97% | 
30 | Cc1nc(NCC2CCCO2)[nH]c(=O)c1CCC(C)C (stereo not given) |  | inconclusive: 13.1 µM [inhibitor, partial curve, poor fit]
31 | O=C(c1ccc2c(=O)n(Cc3ccccc3)c(=S)[nH]c2c1)N1CCOCC1 |  | inconclusive: 1.65 µM [inhibitor, full curve]
32 | O=C(Nc1nnc(-c2cccs2)o1)c1cc(-c2ccccc2)nc2ccccc12 | inactive: -26.1% | 
33 | O=[N+]([O-])c1ccc(N2CCN(S(=O)(=O)c3ccc(Cl)cc3)CC2)cc1NCc1cccnc1 |  | inconclusive: 13.1 µM [inhibitor, partial curve, poor fit]
34 | O=C(NNc1cc(N2CCCC2)nc(N2CCCC2)n1)c1ccc([N+](=O)[O-])cc1 | inactive: 66.6% | 
35 | COc1cccc(NC(=O)COC(=O)CCCC2=NS(=O)(=O)c3ccccc3N2)c1 |  | inconclusive: 13.1 µM [inhibitor, partial curve]
36 | FC(F)(F)c1ccc(Cl)c(NC(=S)N/N=C/c2ccccc2C(F)(F)F)c1 |  | inconclusive: 0.657 µM [inhibitor, full curve]
37 | CCOC(=O)CC(NS(=O)(=O)c1ccc2[nH]cc(C(=O)O)c(=O)c2c1)c1ccc(OCC)c(OC)c1 (stereo not given) | inactive: -11.3% | 
38 | Cc1cc2cc(C(c3nnnn3C(C)(C)C)N(Cc3ccco3)CC3CCCO3)c(=O)[nH]c2cc1C (stereo not given) |  | inconclusive: 7.38 µM [inhibitor, partial curve, poor fit]
39 | O=C(NCC1(c2ccccc2)CCCC1)c1ccco1 | inactive: 35.3% | 
40 | COc1ccc(OC)c(N(C(=O)c2ccco2)C(C(=O)NC2CCCC2)c2cc(OC)c(OC)c(OC)c2)c1 (stereo not given) |  | inconclusive: 10.4 µM [inhibitor, single point]
41 | COc1ccccc1NC(=O)C(C)Sc1nnnn1C (stereo not given) |  | active: 11.7 µM
42 | CCC(=O)N1CCc2cc(Br)cc(S(=O)(=O)CCC(=O)N(C)c3cccc(C)c3)c21 |  | active: 5.22 µM
43 | Cn1nccc1C(=O)Nc1cccc(S(=O)(=O)N2CCOCC2)c1 | inactive: 26.3% | 
44 | Cc1nonc1CN(C)C(=O)CC1C(=O)NCCN1Cc1cccc(C(F)(F)F)c1 (stereo not given) |  | active: 10.4 µM
45 | CCCCN(C(=O)C1CC1)C1CCS(=O)(=O)C1 (stereo not given) | inactive: 59.4% | 
46 | CN(C)C(=O)c1cc(C(=O)c2ccc(F)cc2F)c[nH]1 | inactive: 87.7% | 
47 | COc1ccc(C(=O)c2ncc(C(F)(F)F)cc2Cl)cc1 | inactive: 22.8% | 
48 | N#Cc1c(NCCCO)nc(-c2ccccc2)c2c1CCCC2 |  | inconclusive: 0.0928 µM [inhibitor, full curve]

Row | Compound | activity change, negative = inhibition | Potency
49 | Cn1nc(C(=O)Nc2cccc(S(=O)(=O)N3CCCC3)c2)c2ccccc2c1=O |  | active: 9.28 µM
50 | CCc1cccc(NC(=O)C2CCCN2S(=O)(=O)c2cccc3cccnc23)c1 (stereo not given) |  | inconclusive: 20.8 µM [inhibitor, partial curve, poor fit]
51 | COc1cc(C=O)c(-c2c(C=O)cc(OC)c3c2OCO3)c2c1OCO2 | inactive: 1.63% | 
52 | CCOC(=O)[C@H]1[C@H]2COc3cc(OC)ccc3[C@@H]2N2C(=O)N(c3cccc(Cl)c3)C(=O)[C@@]12C |  | inconclusive: 4.15 µM [inhibitor, single point]
53 | CCOC(=O)N(CC)c1ccc(C(O)(C(=O)OCC)C(F)(F)F)cc1 (stereo not given) |  | inconclusive: 18.5 µM [inhibitor, single point]
54 | CCN(C1=NS(=O)(=O)c2ccccc21)N(CC)S(=O)(=O)c1ccc(C)cc1 |  | inconclusive: 2.62 µM [inhibitor, partial curve, poor fit]
55 | O=C(COC(=O)c1ccccc1Br)Nc1cc(S(=O)(=O)N2CCOCC2)ccc1N1CCCC1 |  | inconclusive: 18.5 µM [inhibitor, single point]
56 | O=C(CCC1CCCN(C(=O)Cn2cnnn2)C1)NCc1ccccc1F (stereo not given) | inactive: 0.0101% | 
57 | CC(C)COc1ccc(-c2nnc(-c3ccncc3)o2)cc1 | inactive: 20.3% | 
58 | Cc1cc(C)c(C(N)=O)c(Nc2cccc3ccccc23)n1 |  | inconclusive: 0.37 µM [inhibitor, partial curve, poor fit]
59 | CNC(=O)COC(=O)[C@@H](Nc1ccc(S(=O)(=O)N2CCOCC2)cc1[N+](=O)[O-])C(C)C | inactive: -0.0405% | 
60 | Clc1nc(N2CCOCC2)ncc1Br |  | active: 1.85 µM
61 | CSCCC1C(C#N)=C(N)Oc2n[nH]c(-c3cccs3)c21 (stereo not given) |  | inconclusive: 0.0093 µM [inhibitor, full curve, poor fit]
62 | Cc1ccc(N)cc1NC(=O)CN1CCOCC1 |  | inconclusive: 1.04 µM [inhibitor, partial curve, poor fit]
63 | CCC(Cc1ccccc1)NC(=O)CN(C)S(=O)(=O)c1ccc2c(c1)c(=O)n(C)c(=O)n2C (stereo not given) |  | active: 7.38 µM
64 | CCCCOc1ccc(C(=O)Nc2ccc(CN3CCOCC3)cc2)cc1 |  | inconclusive: 18.5 µM [inhibitor, single point]
65 | CCCCCCN(C(=O)CCCCCN1C(=O)NC(c2ccc([N+](=O)[O-])cc2)C(C(=O)OCc2ccccc2)=C1C)C(C(=O)NCCCC)c1ccc(OCC(=O)OC)c(C(=O)OC)c1 (stereo not given) |  | active: 3.29 µM
66 | CCC1(c2ccc(F)cc2)NC(=O)N(CC(=O)N2CCN(S(=O)(=O)c3ccc(Cl)cc3)CC2)C1=O (stereo not given) |  | inconclusive: 10.4 µM [inhibitor, single point]
67 | COc1ccc(/C(N)=N/OC(=O)CCC2CCCC2)cc1 |  | inconclusive: 18.5 µM [inhibitor, single point]
68 | CCOC(=O)c1ccc(S(=O)(=O)Nc2ccccc2-c2nnn(CC)n2)cc1 |  | inconclusive: 13.1 µM [inhibitor, partial curve, poor fit]
69 | COc1ccc(N2C(=O)CC(Nc3cccc(C(C)=O)c3)C2=O)cc1OC (stereo not given) | inactive: 22.1% | 
70 | CCCNC(=O)c1ccc(COc2ccc(Cl)cc2)o1 |  | inconclusive: 18.5 µM [inhibitor, single point]

Copied from the list:
In Potency, CCOC(=O)[C@H]1[C@H]2COc3cc(OC)ccc3[C@@H]2N2C(=O)N(c3cccc(Cl)c3)C(=O)[C@@]12C is entered as inconclusive: 4.15 µM [inhibitor, single point]
In Potency, COc1ccc(/C(N)=N/OC(=O)CCC2CCCC2)cc1 is entered as inconclusive: 18.5 µM [inhibitor, single point]
